Experimental findings from patent US10736988B2 (UNIVERSITY OF PITTSBURGH—OF THE COMMONWEALTH SYSTEM OF …, priority 2012, dated 2020) are described below.

A short description of the data set: peptide made by a vendor. Particulars: whole synthesis, mass spectrometry and HPLC.

B1: … (peptide)
chain: RRRDEDESSDSSDSSDSSDSSDSSDSSDSSDSSDSSDSSDSSDSSDSSDSSDSSDSSDSSDSSDSSDDEG
modifications: derived from consensus mammalian sequence of DSPP; (8)..(68) [Asp Ser Ser] repeats (n varies from 2 to 20); (1)..(3) Insertion of 3 Arg at the N terminus of the peptide; (4)..(7) Casein kinase 1 recognition motif; (69)..(71) Casein kinase 2 recognition motif
For B1, the “purity (crude or final not stated)” value is 92.26%.
